Binding data for three molecules are collected here from paper PMC7136618, “Defective nucleotide-dependent assembly and membrane fusion in Mfn2 CMT2A variants improved by Bax” (Life Science Alliance, 2020).

These are yes or no findings as the source states them, for the method shown. Some binding calls cover weakened binding; strength is not graded here. Where a sequence is shown, tags or fusion partners need not be part of it.

Assay [1] addresses T1, Mfn2^S378P with a C-terminal 3×FLAG tag (UniProt Q80U63).
T1 sequence: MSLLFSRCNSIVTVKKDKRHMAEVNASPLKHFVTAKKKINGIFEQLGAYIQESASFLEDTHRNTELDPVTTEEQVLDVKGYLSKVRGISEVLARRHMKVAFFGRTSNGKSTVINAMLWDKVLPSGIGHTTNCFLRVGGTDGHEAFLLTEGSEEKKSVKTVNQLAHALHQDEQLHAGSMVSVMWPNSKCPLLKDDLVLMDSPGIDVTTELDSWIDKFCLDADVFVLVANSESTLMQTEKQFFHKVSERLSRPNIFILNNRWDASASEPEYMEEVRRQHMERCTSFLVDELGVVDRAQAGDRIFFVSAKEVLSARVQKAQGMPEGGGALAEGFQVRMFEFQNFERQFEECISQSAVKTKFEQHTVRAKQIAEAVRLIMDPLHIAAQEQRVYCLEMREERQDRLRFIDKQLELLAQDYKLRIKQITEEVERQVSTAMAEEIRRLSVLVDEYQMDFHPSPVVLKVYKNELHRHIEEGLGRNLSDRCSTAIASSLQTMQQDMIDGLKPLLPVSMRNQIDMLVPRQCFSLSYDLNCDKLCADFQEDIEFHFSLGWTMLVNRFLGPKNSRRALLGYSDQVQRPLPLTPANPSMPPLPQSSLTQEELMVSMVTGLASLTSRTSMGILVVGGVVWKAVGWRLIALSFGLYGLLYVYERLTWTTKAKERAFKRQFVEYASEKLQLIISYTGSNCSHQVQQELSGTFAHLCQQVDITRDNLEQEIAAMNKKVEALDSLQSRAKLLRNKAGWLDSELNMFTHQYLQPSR
In words: native gel or EMSA; BN-PAGE of isolated mitochondria incubated with 2 mM GTP at 37°C for 30 min before lysis in 1% digitonin; anti-FLAG blot.

For assay [2], the target named is T1, Mfn2^S378P with a C-terminal 3×FLAG tag. In words: native gel or EMSA; BN-PAGE of isolated mitochondria incubated with 2 mM GMPPNP, with or without 1 μM purified recombinant Bax, at 37°C for 30 min before lysis in 1% digitonin; anti-FLAG blot.
Assay [3] deals with T2, Mfn2^Q386P with a C-terminal 3×FLAG tag (UniProt Q80U63).
T2 sequence: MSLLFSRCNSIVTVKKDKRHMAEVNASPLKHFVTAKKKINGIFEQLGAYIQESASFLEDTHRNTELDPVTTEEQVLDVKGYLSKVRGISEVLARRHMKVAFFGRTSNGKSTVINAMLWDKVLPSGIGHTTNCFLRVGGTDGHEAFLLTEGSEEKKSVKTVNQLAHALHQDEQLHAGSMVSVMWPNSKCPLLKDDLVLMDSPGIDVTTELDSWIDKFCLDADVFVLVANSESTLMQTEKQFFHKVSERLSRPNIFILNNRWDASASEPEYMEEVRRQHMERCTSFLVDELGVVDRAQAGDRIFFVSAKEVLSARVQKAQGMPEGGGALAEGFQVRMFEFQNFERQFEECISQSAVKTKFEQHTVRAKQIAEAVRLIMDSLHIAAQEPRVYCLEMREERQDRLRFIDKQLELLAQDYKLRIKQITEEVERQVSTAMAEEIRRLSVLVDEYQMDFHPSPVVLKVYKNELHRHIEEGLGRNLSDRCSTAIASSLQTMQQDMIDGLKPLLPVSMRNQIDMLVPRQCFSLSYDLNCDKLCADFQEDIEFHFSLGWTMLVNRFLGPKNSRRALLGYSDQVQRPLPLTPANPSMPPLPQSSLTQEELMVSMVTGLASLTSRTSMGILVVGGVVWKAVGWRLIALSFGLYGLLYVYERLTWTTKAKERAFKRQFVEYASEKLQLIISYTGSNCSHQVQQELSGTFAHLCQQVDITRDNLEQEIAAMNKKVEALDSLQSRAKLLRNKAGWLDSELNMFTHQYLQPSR
The experiment in a line: native gel or EMSA; BN-PAGE of isolated mitochondria incubated with 2 mM GTP at 37°C for 30 min before lysis in 1% digitonin; anti-FLAG blot.

Assay [4] has as its target T2, Mfn2^Q386P with a C-terminal 3×FLAG tag. The experiment in a line: native gel or EMSA; BN-PAGE of isolated mitochondria incubated with 2 mM GMPPNP, with or without 1 μM purified recombinant Bax, at 37°C for 30 min before lysis in 1% digitonin; anti-FLAG blot.
Assay [5] addresses T3, Mfn2^A383V with a C-terminal 3×FLAG tag (UniProt Q80U63).
T3 sequence: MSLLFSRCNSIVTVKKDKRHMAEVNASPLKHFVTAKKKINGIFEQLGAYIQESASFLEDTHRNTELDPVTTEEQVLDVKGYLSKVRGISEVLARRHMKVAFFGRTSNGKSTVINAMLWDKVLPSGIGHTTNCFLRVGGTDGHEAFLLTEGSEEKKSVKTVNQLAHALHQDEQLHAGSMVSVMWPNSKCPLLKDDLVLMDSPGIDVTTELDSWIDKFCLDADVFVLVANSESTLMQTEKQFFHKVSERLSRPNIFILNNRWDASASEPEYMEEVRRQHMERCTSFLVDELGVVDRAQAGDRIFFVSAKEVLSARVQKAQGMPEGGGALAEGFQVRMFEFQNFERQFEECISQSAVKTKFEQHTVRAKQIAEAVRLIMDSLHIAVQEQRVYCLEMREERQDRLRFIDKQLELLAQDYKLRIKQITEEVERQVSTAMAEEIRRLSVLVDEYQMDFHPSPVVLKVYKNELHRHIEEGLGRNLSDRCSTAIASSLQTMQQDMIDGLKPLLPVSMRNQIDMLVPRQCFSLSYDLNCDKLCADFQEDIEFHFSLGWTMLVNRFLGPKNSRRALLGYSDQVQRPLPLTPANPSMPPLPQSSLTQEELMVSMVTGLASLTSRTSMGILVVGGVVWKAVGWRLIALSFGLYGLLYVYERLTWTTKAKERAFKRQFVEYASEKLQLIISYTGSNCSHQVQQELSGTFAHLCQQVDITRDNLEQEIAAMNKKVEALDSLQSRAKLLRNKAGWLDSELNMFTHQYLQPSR
The experiment in a line: native gel or EMSA; BN-PAGE of isolated mitochondria incubated with 2 mM GTP at 37°C for 30 min before lysis in 1% digitonin; anti-FLAG blot.

Assay [6] has as its target T3, Mfn2^A383V with a C-terminal 3×FLAG tag. In words: native gel or EMSA; BN-PAGE of isolated mitochondria incubated with 2 mM GMPPNP, with or without 1 μM purified recombinant Bax, at 37°C for 30 min before lysis in 1% digitonin; anti-FLAG blot.

B1: Mfn2^S378P with a C-terminal 3×FLAG tag (natural protein, UniProt Q80U63 1-757, looked up)
chain: MSLLFSRCNSIVTVKKDKRHMAEVNASPLKHFVTAKKKINGIFEQLGAYIQESASFLEDTHRNTELDPVTTEEQVLDVKGYLSKVRGISEVLARRHMKVAFFGRTSNGKSTVINAMLWDKVLPSGIGHTTNCFLRVGGTDGHEAFLLTEGSEEKKSVKTVNQLAHALHQDEQLHAGSMVSVMWPNSKCPLLKDDLVLMDSPGIDVTTELDSWIDKFCLDADVFVLVANSESTLMQTEKQFFHKVSERLSRPNIFILNNRWDASASEPEYMEEVRRQHMERCTSFLVDELGVVDRAQAGDRIFFVSAKEVLSARVQKAQGMPEGGGALAEGFQVRMFEFQNFERQFEECISQSAVKTKFEQHTVRAKQIAEAVRLIMDPLHIAAQEQRVYCLEMREERQDRLRFIDKQLELLAQDYKLRIKQITEEVERQVSTAMAEEIRRLSVLVDEYQMDFHPSPVVLKVYKNELHRHIEEGLGRNLSDRCSTAIASSLQTMQQDMIDGLKPLLPVSMRNQIDMLVPRQCFSLSYDLNCDKLCADFQEDIEFHFSLGWTMLVNRFLGPKNSRRALLGYSDQVQRPLPLTPANPSMPPLPQSSLTQEELMVSMVTGLASLTSRTSMGILVVGGVVWKAVGWRLIALSFGLYGLLYVYERLTWTTKAKERAFKRQFVEYASEKLQLIISYTGSNCSHQVQQELSGTFAHLCQQVDITRDNLEQEIAAMNKKVEALDSLQSRAKLLRNKAGWLDSELNMFTHQYLQPSR
notes: Mitofusin 2 (Mfn2) with the CMT2A-associated substitution S378P; CMT2A-associated (patient) substitution; also called Mfn2-FLAG variant S378P; source: Mfn2-null MEFs, retroviral transduction, clonal population; isolated mitochondria, lysed; not shown: 3×FLAG, C-terminal, kept
As for B1, the binding result in assay [1] and in assay [2] was “binds” throughout.

B2: Mfn2^Q386P with a C-terminal 3×FLAG tag (natural protein, UniProt Q80U63 1-757, looked up)
chain: MSLLFSRCNSIVTVKKDKRHMAEVNASPLKHFVTAKKKINGIFEQLGAYIQESASFLEDTHRNTELDPVTTEEQVLDVKGYLSKVRGISEVLARRHMKVAFFGRTSNGKSTVINAMLWDKVLPSGIGHTTNCFLRVGGTDGHEAFLLTEGSEEKKSVKTVNQLAHALHQDEQLHAGSMVSVMWPNSKCPLLKDDLVLMDSPGIDVTTELDSWIDKFCLDADVFVLVANSESTLMQTEKQFFHKVSERLSRPNIFILNNRWDASASEPEYMEEVRRQHMERCTSFLVDELGVVDRAQAGDRIFFVSAKEVLSARVQKAQGMPEGGGALAEGFQVRMFEFQNFERQFEECISQSAVKTKFEQHTVRAKQIAEAVRLIMDSLHIAAQEPRVYCLEMREERQDRLRFIDKQLELLAQDYKLRIKQITEEVERQVSTAMAEEIRRLSVLVDEYQMDFHPSPVVLKVYKNELHRHIEEGLGRNLSDRCSTAIASSLQTMQQDMIDGLKPLLPVSMRNQIDMLVPRQCFSLSYDLNCDKLCADFQEDIEFHFSLGWTMLVNRFLGPKNSRRALLGYSDQVQRPLPLTPANPSMPPLPQSSLTQEELMVSMVTGLASLTSRTSMGILVVGGVVWKAVGWRLIALSFGLYGLLYVYERLTWTTKAKERAFKRQFVEYASEKLQLIISYTGSNCSHQVQQELSGTFAHLCQQVDITRDNLEQEIAAMNKKVEALDSLQSRAKLLRNKAGWLDSELNMFTHQYLQPSR
notes: Mitofusin 2 (Mfn2) with the CMT2A-associated substitution Q386P; CMT2A-associated (patient) substitution; also called Mfn2-FLAG variant Q386P; source: Mfn2-null MEFs, retroviral transduction, clonal population; isolated mitochondria, lysed; not shown: 3×FLAG, C-terminal, kept
With B2, the binding result in assay [3] and in assay [4] was “binds” throughout.

B3: Mfn2^A383V with a C-terminal 3×FLAG tag (natural protein, UniProt Q80U63 1-757, looked up)
chain: MSLLFSRCNSIVTVKKDKRHMAEVNASPLKHFVTAKKKINGIFEQLGAYIQESASFLEDTHRNTELDPVTTEEQVLDVKGYLSKVRGISEVLARRHMKVAFFGRTSNGKSTVINAMLWDKVLPSGIGHTTNCFLRVGGTDGHEAFLLTEGSEEKKSVKTVNQLAHALHQDEQLHAGSMVSVMWPNSKCPLLKDDLVLMDSPGIDVTTELDSWIDKFCLDADVFVLVANSESTLMQTEKQFFHKVSERLSRPNIFILNNRWDASASEPEYMEEVRRQHMERCTSFLVDELGVVDRAQAGDRIFFVSAKEVLSARVQKAQGMPEGGGALAEGFQVRMFEFQNFERQFEECISQSAVKTKFEQHTVRAKQIAEAVRLIMDSLHIAVQEQRVYCLEMREERQDRLRFIDKQLELLAQDYKLRIKQITEEVERQVSTAMAEEIRRLSVLVDEYQMDFHPSPVVLKVYKNELHRHIEEGLGRNLSDRCSTAIASSLQTMQQDMIDGLKPLLPVSMRNQIDMLVPRQCFSLSYDLNCDKLCADFQEDIEFHFSLGWTMLVNRFLGPKNSRRALLGYSDQVQRPLPLTPANPSMPPLPQSSLTQEELMVSMVTGLASLTSRTSMGILVVGGVVWKAVGWRLIALSFGLYGLLYVYERLTWTTKAKERAFKRQFVEYASEKLQLIISYTGSNCSHQVQQELSGTFAHLCQQVDITRDNLEQEIAAMNKKVEALDSLQSRAKLLRNKAGWLDSELNMFTHQYLQPSR
notes: Mitofusin 2 (Mfn2) with the CMT2A-associated substitution A383V; CMT2A-associated (patient) substitution; also called Mfn2-FLAG variant A383V; source: Mfn2-null MEFs, retroviral transduction, clonal population; isolated mitochondria, lysed; not shown: 3×FLAG, C-terminal, kept
As to B3, the binding entry in assay [5] and in assay [6] was “binds” throughout.
